Source: patent US20190055283A1 (OHIO STATE INNOVATION FOUNDATION, priority 2016, published 2019)

Assay: general procedure: solution-phase peptide synthesis
Conditions: late stage modification step

Substance | step yield
Cbz-Asp(OtBu)-Glu(OtBu)-Val-AAsp(OtBu)-COBn | 18% yield
Cbz-Asp(OtBu)-Glu(OtBu)-Val-AAsp(OtBu)-COMe | 29% yield
Cbz-Asp-Glu-Val-AAsp-COBn | 95%
Cbz-Asp-Glu-Val-AAsp-COH | 10%
Cbz-Asp-Glu-Val-AAsp-COMe | 95% yield
